These are yes or no findings as the source states them, for the method shown. Some binding calls cover weakened binding; strength is not graded here.
Biological target: neuropilin-1 (NRP1) on the cells of fig. S2 (UniProt O14786)
Experiment: binding of peptide-coated silver nanoparticles to cells; 80-nm silver nanoparticles (AgNP) coated with RPARPAROH added to cells, with mAb3 or mAb2; cells not named in the text shown; only the binder purified

Sequences of proteins named here, by UniProt entry; tags and fusion partners are left off. Residues count along the entry.
UniProt O14786, residues 22-923: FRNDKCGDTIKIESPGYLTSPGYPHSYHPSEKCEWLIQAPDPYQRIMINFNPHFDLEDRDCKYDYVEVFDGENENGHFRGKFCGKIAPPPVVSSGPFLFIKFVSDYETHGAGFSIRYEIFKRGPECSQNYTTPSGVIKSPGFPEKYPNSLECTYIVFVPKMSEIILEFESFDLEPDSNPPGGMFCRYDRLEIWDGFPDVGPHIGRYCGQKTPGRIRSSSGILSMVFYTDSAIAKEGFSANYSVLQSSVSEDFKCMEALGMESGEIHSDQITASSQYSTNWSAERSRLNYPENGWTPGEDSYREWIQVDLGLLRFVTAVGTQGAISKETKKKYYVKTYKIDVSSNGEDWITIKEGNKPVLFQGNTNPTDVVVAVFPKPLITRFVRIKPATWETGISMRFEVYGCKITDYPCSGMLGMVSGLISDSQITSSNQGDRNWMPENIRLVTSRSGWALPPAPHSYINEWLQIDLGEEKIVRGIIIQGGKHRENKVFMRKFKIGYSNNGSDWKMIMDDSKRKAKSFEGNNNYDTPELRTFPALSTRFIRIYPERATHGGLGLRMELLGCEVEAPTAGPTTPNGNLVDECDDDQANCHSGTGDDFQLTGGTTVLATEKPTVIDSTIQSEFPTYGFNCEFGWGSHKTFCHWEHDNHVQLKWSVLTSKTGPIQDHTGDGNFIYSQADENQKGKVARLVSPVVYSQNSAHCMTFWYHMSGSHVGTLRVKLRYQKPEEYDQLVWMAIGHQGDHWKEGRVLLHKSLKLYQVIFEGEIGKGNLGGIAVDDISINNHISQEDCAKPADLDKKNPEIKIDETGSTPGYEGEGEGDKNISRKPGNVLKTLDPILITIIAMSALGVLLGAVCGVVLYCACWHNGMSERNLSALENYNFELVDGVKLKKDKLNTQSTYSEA

**Q.** RPARPAR [prototypic NRP1-binding CendR peptide RPARPAROH] was tested. Which binding did it give?
**A.** The binding was “binds”.
